{"source": "paper doi:10.1101/2024.07.09.602823", "biological_target": "T1, Septin6 (human (endogenous in MDA-MB-231)) (UniProt Q14141)", "T1 sequence": "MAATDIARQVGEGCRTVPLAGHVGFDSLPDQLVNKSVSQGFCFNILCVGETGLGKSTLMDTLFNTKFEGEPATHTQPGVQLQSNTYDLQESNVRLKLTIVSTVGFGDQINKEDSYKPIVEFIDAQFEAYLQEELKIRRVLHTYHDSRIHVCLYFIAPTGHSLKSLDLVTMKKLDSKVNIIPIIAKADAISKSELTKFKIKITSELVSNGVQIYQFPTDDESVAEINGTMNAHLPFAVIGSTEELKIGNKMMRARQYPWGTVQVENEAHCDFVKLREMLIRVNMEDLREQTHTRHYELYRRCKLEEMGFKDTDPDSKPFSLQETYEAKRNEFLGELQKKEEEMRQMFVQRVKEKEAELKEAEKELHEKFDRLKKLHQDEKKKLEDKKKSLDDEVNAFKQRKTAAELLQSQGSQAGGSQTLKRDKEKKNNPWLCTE", "experiment": "co-IP", "note": "Results are given in words; binding and its absence hold for the method and conditions named. Binding seen in cells or lysates may run through a third protein. Binding calls can cover weak binding; strength is not graded here.", "data": [{"substance": "ΔSH3-AB-Flag (domain or fragment)", "values": [{"measurement": "binding", "result": "binds"}]}]}
